{"sequences": {"note": "Chains of the proteins cited; added tags and fusions are not shown. Residues count along the entry.", "UniProt Q05941, 23-502 T267F": "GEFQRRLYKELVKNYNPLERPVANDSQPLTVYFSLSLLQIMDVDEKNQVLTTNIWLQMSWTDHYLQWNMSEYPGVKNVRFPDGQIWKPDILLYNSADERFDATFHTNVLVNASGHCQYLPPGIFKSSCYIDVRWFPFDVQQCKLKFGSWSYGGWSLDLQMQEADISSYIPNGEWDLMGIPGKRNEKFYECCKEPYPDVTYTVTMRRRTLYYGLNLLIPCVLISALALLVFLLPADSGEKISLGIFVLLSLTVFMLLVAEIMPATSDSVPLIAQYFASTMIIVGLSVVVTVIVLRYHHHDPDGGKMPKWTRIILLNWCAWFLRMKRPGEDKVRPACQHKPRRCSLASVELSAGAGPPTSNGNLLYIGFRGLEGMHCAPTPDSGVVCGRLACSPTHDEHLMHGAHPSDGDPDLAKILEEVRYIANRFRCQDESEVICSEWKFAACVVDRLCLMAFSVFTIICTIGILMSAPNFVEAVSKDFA"}, "source": "patent US20050170360A1", "about": "“Variant neuronal nicotinic alpha-7 receptor and methods of use” (priority 2004, published 2005)", "target": "T1, rat α7 TM2 T6'F (Rattus norvegicus, UniProt Q05941, T267F)", "T1 construct": "expressed in transfected cells; host or cells: Xenopus laevis oocytes injected with cRNA", "assay": "Two-electrode voltage-clamp recording of Xenopus oocytes expressing α7 TM2 T6'F mutant", "assay_type": "cell-based", "conditions": "net charge analysis of concentration-response", "source_text": "Site-directed mutagenesis.\nExpression in Xenopus oocvtes.\nVoltage-clamp recording of whole oocate responses.", "note": "For at least one compound, name, drawing or mass did not settle the structure."}
{"smiles": "CC(=O)OCC[N+](C)(C)C", "note": "[ACh, acetylcholine]", "values": [{"measurement": "ACh potency compared to wild-type α7", "result": "dramatic increase in ACh potency"}]}
